Values from PubChem BioAssay AID504808 (Drosophila RNAi Screening Center, 2011)
Aim: 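Fly genes required to hold E2F transcription in check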 (primary screen). Cell system: Drosophila S2 cells. Reagent: long dsRNA against Drosophila genes. Measured: 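Firefly luciferase driven by E2F sites, normalised to Renilla luciferase on the same minimal promoter, measured by plate reader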. Reading the numbers: E2F firefly: higher = more E2F reporter activity; Renilla normaliser: higher = more normaliser reporter signal. Active means: 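Called active if the normalised E2F reporter went up by over 50%; the cutoff is arbitrary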.
The screen tested about 21,000 reagents; this is an unselected part of those with a known target gene and a result. Over the whole deposit, 18 (0.084%) are marked active. 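Raw counts without plate normalisation, one of two replicates; the ratio scores behind the calls were not deposited.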 Unmarked entries are inactive. Reagents against one gene are numbered here. Names joined by + are all predicted targets of the reagent. No sequences are given here. Not stated in the record: the amount of reagent, the time to read-out.

gene,reagent,"E2F firefly, rep 1","Renilla normaliser, rep 1"
Polr1D + DCTN6-p27,1,90458,5600
CG7071 + Muted,1,1.38e5,6907
Spn28Dc,1,1.29e5,5248
CG14397,1,1.09e5,4435
CG42390,1,62694,3389
CG42404,1,1.35e5,5150
CG7772,1,1.57e5,5395
sel,1,83992,3581
CG30350,1,1.54e5,4708
CG14321,1,1.23e5,9588
CG14851,1,1.34e5,7433
TRAM,1,62758,4155
TRAM,2,1.21e5,5363
CG13297,1,1.03e5,4094
CG9667,1,96976,6835
Obsc,1,48379,3389
Obsc,2,79996,3672
Obsc,3,98951,4466
Obsc,4,1.05e5,4601
HINT1,1,1.68e5,5643
CG9406,1,93213,3836
mRpL30,1,1.05e5,5555
Tsp66A + CG42661 + CG42660,1,95507,3598
Vps4,1,1.42e5,6235
PIG-C,1,1.04e5,4203
Ser6,1,1.36e5,7083
Xrp1,1,59082,4415
Xrp1,2,1.35e5 (active),7580
eIF4H1,1,2.00e5,7029
E(spl)m6-BFM,1,1.13e5,6247
kmg,1,1.08e5,4447
Su(var)3-3,1,83714,3944
CG31459,1,81072,2870
CG9008,1,85049,3606
Grip84,1,1.58e5,5761
CR41501,1,1.87e5,7579
CG33225,1,1.21e5,4745
dos,1,99573,3414
dos,2,99125,4178
Ae2,1,49622,3334
Ae2,2,70266,3228
jumu,1,89118,5133
CG3634,1,1.23e5,7889
CG42496 + Ppcdc,1,83667,3471
Cdc42,1,1.33e5,6652
Gagr,1,84505,3876
TfIIB,1,1.08e5,4832
didum,1,1.52e5,5225
SecCl,1,1.70e5,7562
Ddr,1,1.28e5,5548
Ddr,2,1.29e5,5772
Ddr,3,1.50e5,4623
Ddr,4,1.63e5,5360
Ddr,5,1.38e5,4932
CG42402,1,1.34e5,6642
wcd,1,63855,3140
Vti1b,1,79702,4333
Vti1b,2,1.25e5,6855
ed,1,91982,4052
ed,2,1.40e5,5496
ed,3,1.53e5,4577
ed,4,1.48e5,4964
fln,1,66556,3990
CG43333,1,97481,4227
CG31464,1,1.13e5,5920
Cyp40,1,73350,3578
C901,1,1.26e5,5765
mthl8,1,74147,3082
mthl8,2,98687,3948
l(3)mbt,1,2437 (active),920
TppII,1,2709,177
Cyp304a1,1,1.08e5,6667
CG9541,1,1.64e5,5384
Ccp84Ab,1,1.11e5,7294
HIP + HIP-R,1,1840,992
Lsp1beta,1,72700,3466
CG5556,1,1.69e5,6422
CG1986,1,1.25e5,7092
CG1273,1,93480,3892
CG34398,1,1.37e5,5575
CG34398,2,1.48e5,5125
CG34398,3,86926,3932
CG34398,4,1.61e5,4881
Sry-beta,1,1608,908
CG12479,1,1.59e5,6482
rux,1,6878,832
CG16984,1,86308,4722
CadN2 + CG42830,1,96470,4469
CadN2 + CG42830,2,97083,4048
CadN2 + CG42830,3,1.04e5,3945
Sr-CI,1,53729,3711
Myo95E,1,80253,4002
DCX-EMAP,1,1.59e5,6620
DCX-EMAP,2,1.73e5,5699
CG15368,1,1.21e5,5400
CG8031,1,75580,3098
EndoA,1,72743,3952
CG3184,1,8019,800
Pgm2a,1,2618,165
Rga,1,1.79e5,6890
CysRS,1,78558,3593
CG6321,1,75639,3534
CG14471 (retired record),1,1.01e5,4279
CG15629,1,1.45e5,4512
CG31206,1,81097,2783
CG2574,1,66227,3167
Irp-1A,1,76308,3854

An excerpt from above, showing only “Renilla normaliser, rep 1”:
Ae2 #2 = 3228
jumu = 5133
CG3634 = 7889
CG42496 + Ppcdc = 3471
Cdc42 = 6652
Gagr = 3876
